In the assay the target is VIN3-GFP R556D/I575D (Arabidopsis thaliana) (UniProt Q9FIE3). Briefly: co-IP.

Amino acid sequences for entries named in this document (tags omitted). A change or cut given only in a name is not applied to a line headed by its entry.
UniProt Q9FIE3: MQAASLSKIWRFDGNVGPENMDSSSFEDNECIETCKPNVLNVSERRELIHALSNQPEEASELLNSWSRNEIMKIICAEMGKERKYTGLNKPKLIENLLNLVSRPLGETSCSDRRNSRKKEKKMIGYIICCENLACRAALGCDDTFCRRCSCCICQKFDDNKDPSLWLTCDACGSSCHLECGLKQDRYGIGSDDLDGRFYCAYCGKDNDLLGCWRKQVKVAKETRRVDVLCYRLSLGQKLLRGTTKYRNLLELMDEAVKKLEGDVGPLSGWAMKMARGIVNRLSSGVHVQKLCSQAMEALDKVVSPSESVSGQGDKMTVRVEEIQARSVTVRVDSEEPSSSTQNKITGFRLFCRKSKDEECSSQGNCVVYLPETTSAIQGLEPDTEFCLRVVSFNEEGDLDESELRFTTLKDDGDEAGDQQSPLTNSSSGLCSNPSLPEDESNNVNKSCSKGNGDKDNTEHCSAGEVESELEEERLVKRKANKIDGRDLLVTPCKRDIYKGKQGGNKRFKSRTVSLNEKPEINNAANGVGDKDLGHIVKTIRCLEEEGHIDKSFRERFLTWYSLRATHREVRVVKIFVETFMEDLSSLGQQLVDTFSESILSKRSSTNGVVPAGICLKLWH

No constants are given. Whether binding was seen depends on the method and setting. Binding seen in cells or lysates may run through a third protein.

B1: FIE (PRC2 core subunit) (protein, UniProt Q9LT47 1-369)
chain: MSKITLGNESIVGSLTPSNKKSYKVTNRIQEGKKPLYAVVFNFLDARFFDVFVTAGGNRITLYNCLGDGAISALQSYADEDKEESFYTVSWACGVNGNPYVAAGGVKGIIRVIDVNSETIHKSLVGHGDSVNEIRTQPLKPQLVITASKDESVRLWNVETGICILIFAGAGGHRYEVLSVDFHPSDIYRFASCGMDTTIKIWSMKEFWTYVEKSFTWTDDPSKFPTKFVQFPVFTASIHTNYVDCNRWFGDFILSKSVDNEILLWEPQLKENSPGEGASDVLLRYPVPMCDIWFIKFSCDLHLSSVAIGNQEGKVYVWDLKSCPPVLITKLSHNQSKSVIRQTAMSVDGSTILACCEDGTIWRWDVITK
As to B1, the binding result is “no binding”.
